# Source: the supplement of paper PMC6411743
# ± gives the standard deviation of the averaged measurements. This is a selection; strong and weak results do not stand in their true shares.
# Columns and labels:
# Assay in all cases: NP40-soluble protein abundance relative to vehicle (solubility fold change) (ratio); higher = more soluble protein in presence of ATP
# ARHGAP1 = target: T1, ARHGAP1 (UniProt Q07960)
# T1 sequence (whole entry): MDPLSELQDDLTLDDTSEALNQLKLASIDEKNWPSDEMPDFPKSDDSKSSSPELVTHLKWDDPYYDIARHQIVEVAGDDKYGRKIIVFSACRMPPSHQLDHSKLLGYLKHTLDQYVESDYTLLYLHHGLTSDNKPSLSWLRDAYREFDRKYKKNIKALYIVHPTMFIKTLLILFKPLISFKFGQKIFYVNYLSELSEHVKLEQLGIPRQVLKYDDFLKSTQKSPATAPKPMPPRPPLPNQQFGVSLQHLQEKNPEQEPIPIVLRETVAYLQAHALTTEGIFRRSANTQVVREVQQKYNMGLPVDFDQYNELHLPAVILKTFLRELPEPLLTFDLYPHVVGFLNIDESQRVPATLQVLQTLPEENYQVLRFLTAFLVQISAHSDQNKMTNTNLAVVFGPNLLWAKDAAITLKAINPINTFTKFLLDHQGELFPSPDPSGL
# How it was run: (§1)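 Each value is a fold change relative to the detergent-processed vehicle, calculated per replicate from vsn-normalised intensities. Jurkat crude lysate received eight concentrations (0.1 to 10 mM) for 10 min at room temperature and 3 min at 37 °C, then was solubilised in 0.8% NP40 with benzonase (60 min, 4 °C). The ultracentrifuged supernatant was TMT-labelled and run by LC-MS/MS in three independent experiments.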
# DR1 = target: T2, DR1 (UniProt Q01658)
# T2 sequence (whole entry): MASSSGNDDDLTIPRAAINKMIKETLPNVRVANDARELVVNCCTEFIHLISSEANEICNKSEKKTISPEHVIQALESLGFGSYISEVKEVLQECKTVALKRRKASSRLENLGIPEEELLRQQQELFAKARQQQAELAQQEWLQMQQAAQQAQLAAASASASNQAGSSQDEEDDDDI
# How it was run: as §1
# LMAN2 = target: T3, LMAN2 (UniProt Q12907)
# T3 sequence (whole entry): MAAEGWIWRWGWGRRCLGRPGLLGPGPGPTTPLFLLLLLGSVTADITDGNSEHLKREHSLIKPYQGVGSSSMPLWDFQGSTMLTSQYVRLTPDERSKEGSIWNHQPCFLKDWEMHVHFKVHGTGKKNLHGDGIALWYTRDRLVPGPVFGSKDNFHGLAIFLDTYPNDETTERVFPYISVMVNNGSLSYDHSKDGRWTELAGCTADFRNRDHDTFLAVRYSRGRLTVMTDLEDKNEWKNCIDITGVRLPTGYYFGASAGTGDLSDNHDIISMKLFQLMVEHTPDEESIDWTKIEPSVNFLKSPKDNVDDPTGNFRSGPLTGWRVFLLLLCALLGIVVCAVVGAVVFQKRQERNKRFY
# How it was run: as §1
# MFGE8 = target: T4, MFGE8 (UniProt Q08431)
# T4 sequence (whole entry): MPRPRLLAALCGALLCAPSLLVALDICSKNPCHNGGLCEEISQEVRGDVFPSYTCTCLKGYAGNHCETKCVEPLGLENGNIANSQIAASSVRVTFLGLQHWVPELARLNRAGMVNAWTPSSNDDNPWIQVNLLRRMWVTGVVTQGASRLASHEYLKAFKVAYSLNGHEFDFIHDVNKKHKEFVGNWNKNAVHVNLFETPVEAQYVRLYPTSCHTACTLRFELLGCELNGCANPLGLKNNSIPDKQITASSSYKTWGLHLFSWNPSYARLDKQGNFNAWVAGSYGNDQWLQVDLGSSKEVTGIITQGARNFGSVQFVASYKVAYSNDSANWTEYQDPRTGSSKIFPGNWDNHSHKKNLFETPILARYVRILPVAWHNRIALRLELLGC
# How it was run: as §1
# MLLT11 = target: T5, MLLT11 (UniProt Q13015)
# T5 sequence (whole entry): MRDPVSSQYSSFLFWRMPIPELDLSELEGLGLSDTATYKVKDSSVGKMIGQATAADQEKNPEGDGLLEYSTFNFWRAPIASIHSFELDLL
# How it was run: as §1
# [1] = target: T6, UniProt Q01432-5|Q01432 and related entries
# T6 sequence (whole entry): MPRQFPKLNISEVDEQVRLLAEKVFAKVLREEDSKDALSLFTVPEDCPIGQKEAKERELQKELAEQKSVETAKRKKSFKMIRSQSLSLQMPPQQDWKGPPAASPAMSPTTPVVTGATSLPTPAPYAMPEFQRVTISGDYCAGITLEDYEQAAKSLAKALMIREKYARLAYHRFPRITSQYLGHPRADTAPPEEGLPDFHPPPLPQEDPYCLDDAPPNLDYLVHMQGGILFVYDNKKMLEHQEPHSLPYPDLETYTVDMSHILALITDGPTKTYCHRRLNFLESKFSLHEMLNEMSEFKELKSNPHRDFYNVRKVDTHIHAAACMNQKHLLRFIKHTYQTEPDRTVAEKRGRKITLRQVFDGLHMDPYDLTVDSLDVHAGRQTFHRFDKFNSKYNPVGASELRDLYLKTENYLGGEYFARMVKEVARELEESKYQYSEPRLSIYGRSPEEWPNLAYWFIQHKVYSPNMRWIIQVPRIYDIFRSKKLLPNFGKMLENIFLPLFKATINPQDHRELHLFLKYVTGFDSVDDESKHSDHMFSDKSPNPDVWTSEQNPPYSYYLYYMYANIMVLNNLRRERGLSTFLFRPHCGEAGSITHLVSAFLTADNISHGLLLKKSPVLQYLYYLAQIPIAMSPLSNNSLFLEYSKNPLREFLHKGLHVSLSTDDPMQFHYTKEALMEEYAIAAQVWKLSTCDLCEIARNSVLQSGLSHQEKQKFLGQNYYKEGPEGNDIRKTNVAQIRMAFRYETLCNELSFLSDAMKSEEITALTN
# How it was run: as §1
# [2] = target: T7, UniProt Q01850 and related entries
# T7 sequence (whole entry): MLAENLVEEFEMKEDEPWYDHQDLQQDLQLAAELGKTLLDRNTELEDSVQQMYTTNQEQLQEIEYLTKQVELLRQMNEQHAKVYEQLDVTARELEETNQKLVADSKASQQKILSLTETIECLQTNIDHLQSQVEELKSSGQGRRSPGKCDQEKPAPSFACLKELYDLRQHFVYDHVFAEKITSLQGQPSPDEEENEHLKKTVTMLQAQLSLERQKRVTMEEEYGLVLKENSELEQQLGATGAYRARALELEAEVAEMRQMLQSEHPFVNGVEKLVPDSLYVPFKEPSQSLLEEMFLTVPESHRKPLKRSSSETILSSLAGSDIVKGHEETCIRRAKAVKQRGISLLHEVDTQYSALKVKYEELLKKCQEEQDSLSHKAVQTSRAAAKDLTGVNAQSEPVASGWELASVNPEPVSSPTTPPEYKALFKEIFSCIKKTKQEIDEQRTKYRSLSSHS
# How it was run: as §1
# UniProt Q12974 = target: T8, UniProt Q12974
# T8 sequence (whole entry): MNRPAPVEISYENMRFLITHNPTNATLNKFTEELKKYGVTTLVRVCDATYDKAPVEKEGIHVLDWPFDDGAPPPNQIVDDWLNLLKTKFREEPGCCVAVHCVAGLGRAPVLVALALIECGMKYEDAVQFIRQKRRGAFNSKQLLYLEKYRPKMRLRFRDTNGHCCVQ
# How it was run: as §1
# [3] = target: T9, UniProt Q13188 and related entries
# T9 sequence (whole entry): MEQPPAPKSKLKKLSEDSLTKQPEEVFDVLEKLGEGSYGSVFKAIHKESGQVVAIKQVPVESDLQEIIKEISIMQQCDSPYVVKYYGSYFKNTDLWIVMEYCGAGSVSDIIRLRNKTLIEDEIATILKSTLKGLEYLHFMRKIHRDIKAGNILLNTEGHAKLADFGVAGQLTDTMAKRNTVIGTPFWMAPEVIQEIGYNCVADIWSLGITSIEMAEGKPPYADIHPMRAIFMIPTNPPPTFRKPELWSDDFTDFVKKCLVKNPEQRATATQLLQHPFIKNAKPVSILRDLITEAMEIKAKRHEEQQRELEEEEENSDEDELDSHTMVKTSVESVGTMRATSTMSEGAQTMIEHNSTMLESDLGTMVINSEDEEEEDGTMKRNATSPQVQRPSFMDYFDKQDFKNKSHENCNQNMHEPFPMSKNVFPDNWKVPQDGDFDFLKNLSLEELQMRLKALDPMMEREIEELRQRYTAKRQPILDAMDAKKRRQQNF
# How it was run: as §1
smiles,measurement,setting,value
Nc1ncnc2c1ncn2[C@@H]1O[C@H](COP(=O)(O)OP(=O)(O)OP(=O)(O)O)[C@@H](O)[C@H]1O [adenosine triphosphate],NP40-soluble protein abundance,ARHGAP1; concentration: 1mM,1 ± 0.062
same,NP40-soluble protein abundance,ARHGAP1; concentration: 2mM,0.976 ± 0.067
same,NP40-soluble protein abundance,ARHGAP1; concentration: 4mM,0.958 ± 0.049
same,NP40-soluble protein abundance,ARHGAP1; concentration: 6mM,0.947 ± 0.065
same,NP40-soluble protein abundance,ARHGAP1; concentration: 8mM,0.957 ± 0.05
same,NP40-soluble protein abundance,ARHGAP1; concentration: 10mM,0.95 ± 0.055
same,NP40-soluble protein abundance,DR1; concentration: 1mM,0.871 ± 0.18
same,NP40-soluble protein abundance,DR1; concentration: 2mM,0.832 ± 0.099
same,NP40-soluble protein abundance,DR1; concentration: 4mM,0.707 ± 0.12
same,NP40-soluble protein abundance,DR1; concentration: 6mM,0.773 ± 0.12
same,NP40-soluble protein abundance,DR1; concentration: 8mM,0.76 ± 0.047
same,NP40-soluble protein abundance,DR1; concentration: 10mM,0.683 ± 0.16
same,NP40-soluble protein abundance,LMAN2; concentration: 1mM,0.987 ± 0.087
same,NP40-soluble protein abundance,LMAN2; concentration: 2mM,0.998 ± 0.067
same,NP40-soluble protein abundance,LMAN2; concentration: 4mM,0.958 ± 0.055
same,NP40-soluble protein abundance,LMAN2; concentration: 6mM,0.945 ± 0.11
same,NP40-soluble protein abundance,LMAN2; concentration: 8mM,0.986 ± 0.045
same,NP40-soluble protein abundance,LMAN2; concentration: 10mM,0.993 ± 0.053
same,NP40-soluble protein abundance,MFGE8; concentration: 1mM,0.983 ± 0.039
same,NP40-soluble protein abundance,MFGE8; concentration: 2mM,0.987 ± 0.024
same,NP40-soluble protein abundance,MFGE8; concentration: 4mM,0.973 ± 0.077
same,NP40-soluble protein abundance,MFGE8; concentration: 6mM,0.924 ± 0.06
same,NP40-soluble protein abundance,MFGE8; concentration: 8mM,0.9526 ± 0.005
same,NP40-soluble protein abundance,MFGE8; concentration: 10mM,0.998 ± 0.046
same,NP40-soluble protein abundance,MLLT11; concentration: 1mM,1.2 ± 0.024
same,NP40-soluble protein abundance,MLLT11; concentration: 2mM,1.15 ± 0.069
same,NP40-soluble protein abundance,MLLT11; concentration: 4mM,0.815 ± 0.03
same,NP40-soluble protein abundance,MLLT11; concentration: 6mM,0.892 ± 0.22
same,NP40-soluble protein abundance,MLLT11; concentration: 8mM,0.905 ± 0.078
same,NP40-soluble protein abundance,MLLT11; concentration: 10mM,0.837 ± 0.092
same,NP40-soluble protein abundance,[1]; concentration: 1mM,1.04 ± 0.024
same,NP40-soluble protein abundance,[1]; concentration: 2mM,1.03 ± 0.036
same,NP40-soluble protein abundance,[1]; concentration: 4mM,1.01 ± 0.026
same,NP40-soluble protein abundance,[1]; concentration: 6mM,0.964 ± 0.048
same,NP40-soluble protein abundance,[1]; concentration: 8mM,1.022 ± 0.0056
same,NP40-soluble protein abundance,[1]; concentration: 10mM,1.02 ± 0.05
same,NP40-soluble protein abundance,[2]; concentration: 1mM,0.893 ± 0.066
same,NP40-soluble protein abundance,[2]; concentration: 2mM,0.99 ± 0.062
same,NP40-soluble protein abundance,[2]; concentration: 4mM,0.921 ± 0.042
same,NP40-soluble protein abundance,[2]; concentration: 6mM,0.962 ± 0.066
same,NP40-soluble protein abundance,[2]; concentration: 8mM,0.873 ± 0.034
same,NP40-soluble protein abundance,[2]; concentration: 10mM,0.914 ± 0.12
same,NP40-soluble protein abundance,UniProt Q12974; concentration: 1mM,0.978 ± 0.052
same,NP40-soluble protein abundance,UniProt Q12974; concentration: 2mM,0.948 ± 0.032
same,NP40-soluble protein abundance,UniProt Q12974; concentration: 4mM,0.914 ± 0.058
same,NP40-soluble protein abundance,UniProt Q12974; concentration: 6mM,0.938 ± 0.079
same,NP40-soluble protein abundance,UniProt Q12974; concentration: 8mM,0.927 ± 0.048
same,NP40-soluble protein abundance,UniProt Q12974; concentration: 10mM,0.898 ± 0.032
same,NP40-soluble protein abundance,[3]; concentration: 1mM,0.954 ± 0.048
same,NP40-soluble protein abundance,[3]; concentration: 2mM,0.974 ± 0.038
same,NP40-soluble protein abundance,[3]; concentration: 4mM,0.949 ± 0.034
same,NP40-soluble protein abundance,[3]; concentration: 6mM,0.962 ± 0.033
same,NP40-soluble protein abundance,[3]; concentration: 8mM,0.951 ± 0.024
same,NP40-soluble protein abundance,[3]; concentration: 10mM,0.933 ± 0.017

# Three entries from above, tab-delimited.
smiles	measurement	setting	value
Nc1ncnc2c1ncn2[C@@H]1O[C@H](COP(=O)(O)OP(=O)(O)OP(=O)(O)O)[C@@H](O)[C@H]1O [adenosine triphosphate]	NP40-soluble protein abundance	ARHGAP1; concentration: 6mM	0.947 ± 0.065
same	NP40-soluble protein abundance	ARHGAP1; concentration: 8mM	0.957 ± 0.05
same	NP40-soluble protein abundance	ARHGAP1; concentration: 10mM	0.95 ± 0.055
